These are yes or no findings as the source states them, for the method shown. Binding calls can cover weak binding; strength is not graded here.
Molecular target: T1, synthetic CX3CR1 peptide (aa 2-21) containing the binding region to CX3CL1
T1 sequence (peptide): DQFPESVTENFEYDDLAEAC
Test: affinity chromatography; CX3CR1 peptide coupled to CNBr-activated Sepharose 4B; protein (1 mg/ml) loaded in buffer A (0.1 M Mes pH 6.4, 0.5 mM MgCl2, 2 mM EGTA); bound protein eluted with 0.5 M NaCl in buffer A; fractions read by dot immunoblot; both purified

Protein sequences, listed by entry. Tags and fused reporters are not part of them. Lines headed by an entry give the natural chain unless they say otherwise; changes in a name come on top.
UniProt P78423: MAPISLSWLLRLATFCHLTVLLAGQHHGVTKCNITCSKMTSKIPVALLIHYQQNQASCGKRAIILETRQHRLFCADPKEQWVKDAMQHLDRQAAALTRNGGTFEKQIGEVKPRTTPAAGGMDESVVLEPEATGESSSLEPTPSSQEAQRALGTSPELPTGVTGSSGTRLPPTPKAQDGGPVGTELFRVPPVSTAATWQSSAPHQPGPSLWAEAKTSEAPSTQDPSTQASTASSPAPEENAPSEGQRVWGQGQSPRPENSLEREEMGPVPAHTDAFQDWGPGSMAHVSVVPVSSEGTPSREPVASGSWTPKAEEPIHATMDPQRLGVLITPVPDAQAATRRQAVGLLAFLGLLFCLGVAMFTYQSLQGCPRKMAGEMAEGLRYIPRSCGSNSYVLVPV

“Full-length CX3CL1 peptide (from UniProt P78423) (ligand)” was tested, and the binding was “binds”.
